The values that follow come from the supplement of paper PMC6411743.

Amino acid sequences for entries named in this document (tags omitted). A change or cut given only in a name is not applied to a line headed by its entry.
UniProt P61011: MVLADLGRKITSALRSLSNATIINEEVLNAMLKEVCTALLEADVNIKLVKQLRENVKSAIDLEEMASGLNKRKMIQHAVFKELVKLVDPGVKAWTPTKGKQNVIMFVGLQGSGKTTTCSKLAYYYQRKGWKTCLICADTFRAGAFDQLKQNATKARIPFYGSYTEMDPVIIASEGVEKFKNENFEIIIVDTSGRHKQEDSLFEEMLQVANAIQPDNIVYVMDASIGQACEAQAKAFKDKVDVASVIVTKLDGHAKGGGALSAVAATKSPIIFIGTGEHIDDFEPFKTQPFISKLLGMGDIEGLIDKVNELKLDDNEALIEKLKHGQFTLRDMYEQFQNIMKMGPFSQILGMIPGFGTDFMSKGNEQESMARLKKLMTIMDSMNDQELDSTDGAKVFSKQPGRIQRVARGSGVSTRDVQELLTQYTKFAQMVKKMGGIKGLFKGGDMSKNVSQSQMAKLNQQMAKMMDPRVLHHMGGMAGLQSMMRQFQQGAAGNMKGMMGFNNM
UniProt P60228, whole entry: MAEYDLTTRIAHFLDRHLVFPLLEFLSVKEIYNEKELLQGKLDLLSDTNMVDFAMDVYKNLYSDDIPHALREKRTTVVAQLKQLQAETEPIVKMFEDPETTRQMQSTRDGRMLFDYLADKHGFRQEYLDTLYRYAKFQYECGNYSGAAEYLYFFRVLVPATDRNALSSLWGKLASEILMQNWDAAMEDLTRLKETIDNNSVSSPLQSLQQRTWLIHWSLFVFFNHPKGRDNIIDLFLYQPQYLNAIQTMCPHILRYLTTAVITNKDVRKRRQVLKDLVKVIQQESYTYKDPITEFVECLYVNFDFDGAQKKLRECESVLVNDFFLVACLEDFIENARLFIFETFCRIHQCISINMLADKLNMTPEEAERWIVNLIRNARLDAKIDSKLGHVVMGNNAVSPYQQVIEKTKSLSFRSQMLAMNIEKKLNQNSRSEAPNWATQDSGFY
UniProt Q05932: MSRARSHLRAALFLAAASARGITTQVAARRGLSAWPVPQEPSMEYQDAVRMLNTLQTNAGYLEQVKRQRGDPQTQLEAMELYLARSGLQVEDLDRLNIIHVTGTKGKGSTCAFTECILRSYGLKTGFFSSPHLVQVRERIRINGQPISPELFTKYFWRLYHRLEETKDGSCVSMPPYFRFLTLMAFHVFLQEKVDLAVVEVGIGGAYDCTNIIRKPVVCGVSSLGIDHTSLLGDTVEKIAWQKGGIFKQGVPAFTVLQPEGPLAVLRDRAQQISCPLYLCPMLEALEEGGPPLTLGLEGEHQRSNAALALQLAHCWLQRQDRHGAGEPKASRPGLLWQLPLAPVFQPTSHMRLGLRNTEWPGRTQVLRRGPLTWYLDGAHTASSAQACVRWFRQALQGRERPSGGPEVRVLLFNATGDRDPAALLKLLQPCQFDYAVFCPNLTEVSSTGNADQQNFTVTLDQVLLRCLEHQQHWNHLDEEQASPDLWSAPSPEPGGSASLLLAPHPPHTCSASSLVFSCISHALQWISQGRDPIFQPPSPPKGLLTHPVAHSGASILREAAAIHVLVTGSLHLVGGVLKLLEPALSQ
UniProt P83436: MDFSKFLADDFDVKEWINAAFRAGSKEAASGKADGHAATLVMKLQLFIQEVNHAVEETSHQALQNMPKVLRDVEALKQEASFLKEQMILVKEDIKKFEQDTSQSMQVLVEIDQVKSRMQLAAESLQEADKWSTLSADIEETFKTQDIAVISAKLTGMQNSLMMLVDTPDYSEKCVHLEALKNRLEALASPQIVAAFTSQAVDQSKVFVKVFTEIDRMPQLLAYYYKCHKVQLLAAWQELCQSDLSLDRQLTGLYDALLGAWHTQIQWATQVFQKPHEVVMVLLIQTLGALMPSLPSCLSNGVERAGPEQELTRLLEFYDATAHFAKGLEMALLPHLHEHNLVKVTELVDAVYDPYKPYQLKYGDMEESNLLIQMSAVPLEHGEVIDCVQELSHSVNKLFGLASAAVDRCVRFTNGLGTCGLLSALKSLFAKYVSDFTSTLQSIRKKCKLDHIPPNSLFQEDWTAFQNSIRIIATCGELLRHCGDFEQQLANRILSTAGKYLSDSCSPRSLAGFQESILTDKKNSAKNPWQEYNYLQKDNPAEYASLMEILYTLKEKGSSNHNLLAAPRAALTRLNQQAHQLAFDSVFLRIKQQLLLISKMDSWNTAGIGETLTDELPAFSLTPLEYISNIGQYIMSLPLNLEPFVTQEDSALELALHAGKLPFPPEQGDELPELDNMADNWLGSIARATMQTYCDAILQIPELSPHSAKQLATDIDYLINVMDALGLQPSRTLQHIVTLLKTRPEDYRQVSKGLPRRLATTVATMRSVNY
UniProt P78536: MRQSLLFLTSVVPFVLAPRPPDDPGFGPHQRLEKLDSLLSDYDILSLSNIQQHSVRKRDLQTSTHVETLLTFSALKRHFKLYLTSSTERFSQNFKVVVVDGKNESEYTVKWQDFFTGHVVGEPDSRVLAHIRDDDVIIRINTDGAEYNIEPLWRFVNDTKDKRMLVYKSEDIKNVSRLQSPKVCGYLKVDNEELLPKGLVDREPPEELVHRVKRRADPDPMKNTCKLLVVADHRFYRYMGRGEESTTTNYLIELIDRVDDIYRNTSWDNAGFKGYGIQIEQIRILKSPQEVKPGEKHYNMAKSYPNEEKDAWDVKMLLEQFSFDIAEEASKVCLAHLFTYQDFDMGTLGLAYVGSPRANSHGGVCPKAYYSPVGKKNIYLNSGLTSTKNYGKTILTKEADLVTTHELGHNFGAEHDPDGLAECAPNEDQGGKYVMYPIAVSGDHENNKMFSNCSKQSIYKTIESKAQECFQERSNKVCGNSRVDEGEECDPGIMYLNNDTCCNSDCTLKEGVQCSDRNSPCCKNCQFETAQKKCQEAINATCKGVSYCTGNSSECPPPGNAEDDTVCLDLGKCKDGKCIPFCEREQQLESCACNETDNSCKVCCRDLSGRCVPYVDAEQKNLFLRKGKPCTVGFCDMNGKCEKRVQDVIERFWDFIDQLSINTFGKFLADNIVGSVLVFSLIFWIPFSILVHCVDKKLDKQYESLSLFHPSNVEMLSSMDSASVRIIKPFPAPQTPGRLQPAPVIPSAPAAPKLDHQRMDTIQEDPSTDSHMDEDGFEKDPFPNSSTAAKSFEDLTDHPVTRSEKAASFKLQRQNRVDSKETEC
UniProt P60900, whole entry: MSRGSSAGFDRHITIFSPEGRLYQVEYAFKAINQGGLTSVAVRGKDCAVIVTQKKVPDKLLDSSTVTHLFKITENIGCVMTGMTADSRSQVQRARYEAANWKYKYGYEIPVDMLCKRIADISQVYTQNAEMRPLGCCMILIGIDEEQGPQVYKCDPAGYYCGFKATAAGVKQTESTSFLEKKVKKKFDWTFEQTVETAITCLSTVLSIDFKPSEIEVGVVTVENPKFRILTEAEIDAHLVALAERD
UniProt P61244, whole entry: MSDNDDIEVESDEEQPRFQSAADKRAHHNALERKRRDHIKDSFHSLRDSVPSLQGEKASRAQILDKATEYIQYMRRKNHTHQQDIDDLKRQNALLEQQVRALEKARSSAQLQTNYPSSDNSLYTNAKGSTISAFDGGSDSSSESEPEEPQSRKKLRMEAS
UniProt P68543: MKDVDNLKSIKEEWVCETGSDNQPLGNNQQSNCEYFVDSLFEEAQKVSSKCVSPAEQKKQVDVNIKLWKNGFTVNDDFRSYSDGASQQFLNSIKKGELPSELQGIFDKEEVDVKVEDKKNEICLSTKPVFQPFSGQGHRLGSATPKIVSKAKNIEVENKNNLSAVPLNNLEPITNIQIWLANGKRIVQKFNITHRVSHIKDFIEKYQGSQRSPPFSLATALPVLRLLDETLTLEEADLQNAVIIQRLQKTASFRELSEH
UniProt Q05086: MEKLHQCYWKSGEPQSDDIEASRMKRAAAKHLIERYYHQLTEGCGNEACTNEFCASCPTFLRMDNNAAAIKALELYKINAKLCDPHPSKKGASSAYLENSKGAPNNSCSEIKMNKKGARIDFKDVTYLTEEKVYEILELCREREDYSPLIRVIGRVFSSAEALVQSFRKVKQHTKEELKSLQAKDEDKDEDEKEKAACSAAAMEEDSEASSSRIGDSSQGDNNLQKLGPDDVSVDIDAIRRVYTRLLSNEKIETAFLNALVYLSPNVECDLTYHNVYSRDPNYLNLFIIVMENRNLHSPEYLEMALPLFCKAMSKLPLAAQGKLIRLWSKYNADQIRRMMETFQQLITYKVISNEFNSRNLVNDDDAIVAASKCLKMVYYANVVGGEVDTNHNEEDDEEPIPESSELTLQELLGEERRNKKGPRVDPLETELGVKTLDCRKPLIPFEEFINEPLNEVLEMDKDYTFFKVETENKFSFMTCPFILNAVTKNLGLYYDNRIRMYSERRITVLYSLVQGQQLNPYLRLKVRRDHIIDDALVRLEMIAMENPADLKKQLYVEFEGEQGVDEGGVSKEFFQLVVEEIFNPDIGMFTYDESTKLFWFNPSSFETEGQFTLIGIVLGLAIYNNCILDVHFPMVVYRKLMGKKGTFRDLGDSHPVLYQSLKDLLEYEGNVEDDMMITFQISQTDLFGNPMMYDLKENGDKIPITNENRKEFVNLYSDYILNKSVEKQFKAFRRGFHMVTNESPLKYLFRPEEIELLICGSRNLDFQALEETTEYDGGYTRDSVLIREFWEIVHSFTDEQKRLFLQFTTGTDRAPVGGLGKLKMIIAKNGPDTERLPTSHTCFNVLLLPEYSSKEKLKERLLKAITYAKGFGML
UniProt Q04837: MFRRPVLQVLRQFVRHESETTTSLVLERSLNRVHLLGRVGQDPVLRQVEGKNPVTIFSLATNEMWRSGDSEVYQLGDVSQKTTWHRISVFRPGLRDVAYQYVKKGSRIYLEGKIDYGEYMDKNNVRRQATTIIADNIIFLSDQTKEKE
UniProt P61009: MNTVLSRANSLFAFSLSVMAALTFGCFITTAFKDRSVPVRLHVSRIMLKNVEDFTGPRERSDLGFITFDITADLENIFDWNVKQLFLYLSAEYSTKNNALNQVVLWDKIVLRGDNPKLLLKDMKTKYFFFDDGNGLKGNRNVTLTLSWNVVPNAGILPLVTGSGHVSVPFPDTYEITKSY
UniProt Q02127: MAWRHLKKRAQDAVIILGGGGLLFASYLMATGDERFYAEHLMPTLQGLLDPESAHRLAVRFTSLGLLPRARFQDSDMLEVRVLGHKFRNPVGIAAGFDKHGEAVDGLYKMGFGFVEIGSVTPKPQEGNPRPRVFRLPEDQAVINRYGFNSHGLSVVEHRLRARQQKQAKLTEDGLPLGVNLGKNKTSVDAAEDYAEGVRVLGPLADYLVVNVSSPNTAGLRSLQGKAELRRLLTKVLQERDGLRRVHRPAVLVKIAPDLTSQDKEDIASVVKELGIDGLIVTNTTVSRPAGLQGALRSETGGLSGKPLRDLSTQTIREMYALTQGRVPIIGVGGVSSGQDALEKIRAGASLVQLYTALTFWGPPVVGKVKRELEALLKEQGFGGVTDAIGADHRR
UniProt P57772: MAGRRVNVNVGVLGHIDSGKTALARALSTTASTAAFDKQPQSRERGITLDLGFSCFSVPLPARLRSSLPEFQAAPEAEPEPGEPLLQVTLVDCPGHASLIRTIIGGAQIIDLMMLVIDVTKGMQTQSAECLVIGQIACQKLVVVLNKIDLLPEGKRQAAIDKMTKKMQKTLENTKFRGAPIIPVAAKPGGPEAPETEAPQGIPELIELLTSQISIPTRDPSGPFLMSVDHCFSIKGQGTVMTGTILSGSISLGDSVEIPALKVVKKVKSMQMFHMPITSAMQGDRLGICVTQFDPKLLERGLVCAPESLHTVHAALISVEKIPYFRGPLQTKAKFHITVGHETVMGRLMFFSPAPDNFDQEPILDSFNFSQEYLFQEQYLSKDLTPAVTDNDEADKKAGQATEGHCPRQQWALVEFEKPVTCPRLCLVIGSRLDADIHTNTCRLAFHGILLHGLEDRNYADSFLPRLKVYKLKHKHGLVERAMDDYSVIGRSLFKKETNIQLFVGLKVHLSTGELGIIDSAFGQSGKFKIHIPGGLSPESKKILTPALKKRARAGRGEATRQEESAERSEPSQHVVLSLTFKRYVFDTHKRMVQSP

Compound in this test: Nc1ncnc2c1ncn2[C@@H]1O[C@H](COP(=O)(O)OP(=O)(O)NP(=O)(O)O)[C@@H](O)[C@H]1O [adenylyl imidodiphosphate]
In words: NP40-soluble protein abundance relative to vehicle (solubility fold change) (ratio); higher = more soluble protein in presence of AMP-PNP. Put shortly:
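Values are fold changes against the detergent-processed vehicle, based on vsn-normalised intensities. Jurkat crude lysate was treated at eight concentrations from 0.1 to 10 mM (10 min at room temperature, then 3 min at 37 °C), solubilised with 0.8% NP40 and benzonase, ultracentrifuged and analysed by TMT-labelled LC-MS/MS over three independent experiments.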

± gives the standard deviation of the averaged measurements. The entries are a selection whose mix differs from that of the whole data set.

For the target SRP54 (UniProt P61011), the NP40-soluble protein abundance by setting is: (concentration: 1mM) 1 ± 0.014; (concentration: 2mM) 0.9835 ± 0.009; (concentration: 4mM) 1.03 ± 0.03; (concentration: 6mM) 1.11 ± 0.053; (concentration: 8mM) 1.13 ± 0.046; (concentration: 10mM) 1.13 ± 0.082.
Regarding UniProt P60228, the NP40-soluble protein abundance was determined as 1.04 ± 0.073 (concentration: 1mM); 1.04 ± 0.077 (concentration: 2mM); 1.1 ± 0.11 (concentration: 4mM); 1.18 ± 0.12 (concentration: 6mM); 1.24 ± 0.12 (concentration: 8mM); 1.33 ± 0.2 (concentration: 10mM).
With UniProt Q05932 and related entries, the NP40-soluble protein abundance (concentration: 1mM) is 1.019 ± 0.0054; the NP40-soluble protein abundance (concentration: 2mM) turned out to be 1.017 ± 0.0061; the NP40-soluble protein abundance (concentration: 4mM) came to 1 ± 0.03; the NP40-soluble protein abundance (concentration: 6mM) turned out to be 1.04 ± 0.037; the NP40-soluble protein abundance (concentration: 8mM) turned out to be 1.02 ± 0.02; the NP40-soluble protein abundance (concentration: 10mM) was 1.04 ± 0.015.
For the target COG7 (UniProt P83436), the NP40-soluble protein abundance came out at 1.011 ± 0.0039 (concentration: 1mM); 1.02 ± 0.035 (concentration: 2mM); 0.999 ± 0.032 (concentration: 4mM); 0.931 ± 0.042 (concentration: 6mM); 0.919 ± 0.023 (concentration: 8mM); 0.941 ± 0.031 (concentration: 10mM).
ADAM17 (UniProt P78536): the NP40-soluble protein abundance reads like this: (concentration: 1mM) 1.005 ± 0.0059; (concentration: 2mM) 1.03 ± 0.061; (concentration: 4mM) 0.983 ± 0.026; (concentration: 6mM) 0.973 ± 0.043; (concentration: 8mM) 0.964 ± 0.036; (concentration: 10mM) 0.987 ± 0.023.
For UniProt P60900 and related entries, the NP40-soluble protein abundance is, setting by setting: (concentration: 1mM) 0.914 ± 0.025; (concentration: 2mM) 0.867 ± 0.069; (concentration: 4mM) 0.875 ± 0.07; (concentration: 6mM) 0.95 ± 0.057; (concentration: 8mM) 0.953 ± 0.082; (concentration: 10mM) 0.953 ± 0.12.
With RPL10A (UniProt P62906), the NP40-soluble protein abundance reads like this: (concentration: 1mM) 0.95 ± 0.051; (concentration: 2mM) 0.903 ± 0.067; (concentration: 4mM) 0.87 ± 0.073; (concentration: 6mM) 0.82 ± 0.029; (concentration: 8mM) 0.719 ± 0.045; (concentration: 10mM) 0.787 ± 0.095.
On to UniProt P61244 and related entries, for which the NP40-soluble protein abundance runs as follows: (concentration: 1mM) 0.897 ± 0.059; (concentration: 2mM) 0.921 ± 0.018; (concentration: 4mM) 0.883 ± 0.06; (concentration: 6mM) 0.86 ± 0.043; (concentration: 8mM) 0.851 ± 0.078; (concentration: 10mM) 0.86 ± 0.048.
For DHX9 (UniProt Q08211), the NP40-soluble protein abundance came out at 1.18 ± 0.066 (concentration: 1mM); 1.14 ± 0.16 (concentration: 2mM); 1.21 ± 0.12 (concentration: 4mM); 1.23 ± 0.095 (concentration: 6mM); 1.27 ± 0.11 (concentration: 8mM); 1.25 ± 0.18 (concentration: 10mM).
For the target UniProt P68543 and related entries, the NP40-soluble protein abundance runs as follows: (concentration: 1mM) 1.006 ± 0.0023; (concentration: 2mM) 1.11 ± 0.16; (concentration: 4mM) 0.9762 ± 0.0066; (concentration: 6mM) 0.979 ± 0.012; (concentration: 8mM) 0.9586 ± 0.0047; (concentration: 10mM) 0.971 ± 0.025.
UniProt Q05086 and related entries: the NP40-soluble protein abundance is 0.968 ± 0.016 (concentration: 1mM); 0.94 ± 0.035 (concentration: 2mM); 0.939 ± 0.0097 (concentration: 4mM); 0.967 ± 0.013 (concentration: 6mM); 0.97 ± 0.017 (concentration: 8mM); 0.941 ± 0.019 (concentration: 10mM).
On to SSBP1 (UniProt Q04837), for which the NP40-soluble protein abundance runs as follows: (concentration: 1mM) 0.929 ± 0.073; (concentration: 2mM) 0.918 ± 0.043; (concentration: 4mM) 0.942 ± 0.088; (concentration: 6mM) 1.11 ± 0.15; (concentration: 8mM) 1.12 ± 0.059; (concentration: 10mM) 1.14 ± 0.1.
For RPL6 (UniProt Q02878), the NP40-soluble protein abundance (concentration: 1mM) is 0.998 ± 0.12; the NP40-soluble protein abundance (concentration: 2mM) was found to be 0.948 ± 0.071; the NP40-soluble protein abundance (concentration: 4mM) came to 0.895 ± 0.12; the NP40-soluble protein abundance (concentration: 6mM) was determined as 0.854 ± 0.12; the NP40-soluble protein abundance (concentration: 8mM) came out at 0.794 ± 0.13; the NP40-soluble protein abundance (concentration: 10mM) was found to be 0.874 ± 0.2.
Take UniProt P61009: the NP40-soluble protein abundance reads like this: (concentration: 1mM) 1.06 ± 0.058; (concentration: 2mM) 1.06 ± 0.14; (concentration: 4mM) 1.06 ± 0.086; (concentration: 6mM) 1.19 ± 0.17; (concentration: 8mM) 1.22 ± 0.062; (concentration: 10mM) 1.25 ± 0.13.
For the target DHODH (UniProt Q02127), the NP40-soluble protein abundance was 0.99 ± 0.032 (concentration: 1mM); 0.919 ± 0.064 (concentration: 2mM); 0.994 ± 0.016 (concentration: 4mM); 0.967 ± 0.027 (concentration: 6mM); 0.976 ± 0.014 (concentration: 8mM); 0.956 ± 0.021 (concentration: 10mM).
As to MRPS9 (UniProt P82933), the NP40-soluble protein abundance by setting is: (concentration: 1mM) 0.984 ± 0.073; (concentration: 2mM) 0.99 ± 0.079; (concentration: 4mM) 0.966 ± 0.14; (concentration: 6mM) 0.971 ± 0.14; (concentration: 8mM) 0.945 ± 0.13; (concentration: 10mM) 0.952 ± 0.17.
For the target EEFSEC (UniProt P57772), the NP40-soluble protein abundance (concentration: 1mM) was 0.988 ± 0.024; the NP40-soluble protein abundance (concentration: 2mM) was determined as 0.969 ± 0.027; the NP40-soluble protein abundance (concentration: 4mM) is 0.993 ± 0.046; the NP40-soluble protein abundance (concentration: 6mM) amounted to 1.029 ± 0.0068; the NP40-soluble protein abundance (concentration: 8mM) came out at 1.04 ± 0.041; the NP40-soluble protein abundance (concentration: 10mM) is 1.03 ± 0.024.
